The record followed here is paper PMC9270420.

Chains of the proteins cited; added tags and fusions are not shown.
UniProt P34152: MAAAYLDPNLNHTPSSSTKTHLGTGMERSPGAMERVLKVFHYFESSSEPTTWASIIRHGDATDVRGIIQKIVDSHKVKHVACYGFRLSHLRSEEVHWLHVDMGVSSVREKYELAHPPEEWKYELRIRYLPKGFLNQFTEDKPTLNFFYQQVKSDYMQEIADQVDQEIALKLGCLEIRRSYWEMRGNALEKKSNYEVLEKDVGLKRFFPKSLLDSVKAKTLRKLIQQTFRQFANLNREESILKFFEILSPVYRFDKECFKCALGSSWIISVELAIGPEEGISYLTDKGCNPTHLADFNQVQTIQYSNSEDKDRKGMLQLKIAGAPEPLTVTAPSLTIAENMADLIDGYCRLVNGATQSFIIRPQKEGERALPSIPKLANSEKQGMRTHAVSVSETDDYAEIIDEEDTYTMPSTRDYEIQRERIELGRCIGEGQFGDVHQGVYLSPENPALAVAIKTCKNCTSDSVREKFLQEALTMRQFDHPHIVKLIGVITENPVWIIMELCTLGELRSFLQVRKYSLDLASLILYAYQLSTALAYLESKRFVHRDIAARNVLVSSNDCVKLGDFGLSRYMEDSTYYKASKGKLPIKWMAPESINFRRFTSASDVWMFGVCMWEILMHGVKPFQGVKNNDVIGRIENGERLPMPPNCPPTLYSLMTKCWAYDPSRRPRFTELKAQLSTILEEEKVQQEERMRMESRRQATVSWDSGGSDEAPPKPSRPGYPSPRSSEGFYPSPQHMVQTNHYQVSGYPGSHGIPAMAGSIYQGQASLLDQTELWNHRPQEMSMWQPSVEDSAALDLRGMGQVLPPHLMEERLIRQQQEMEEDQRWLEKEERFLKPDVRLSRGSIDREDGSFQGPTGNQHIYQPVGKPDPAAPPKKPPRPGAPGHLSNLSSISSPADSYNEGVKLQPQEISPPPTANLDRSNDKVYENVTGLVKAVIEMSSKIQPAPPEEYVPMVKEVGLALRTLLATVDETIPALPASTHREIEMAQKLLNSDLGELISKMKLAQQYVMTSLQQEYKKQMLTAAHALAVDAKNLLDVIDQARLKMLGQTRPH

Results are given in words; binding and its absence hold for the method and conditions named. In cells and extracts the contact can be indirect. Some results given as binding are weak or reduced against the parent protein; the word gives no strength.

The target of test [1] is focal adhesion kinase (FAK) (mouse (endogenous in RAW 264.7 cells and mouse lung tissue)) (UniProt P34152). In words: co-IP; mouse lung tissues after intratracheal LPS, with or without PND-1186 treatment of the mice; complexes of FAK-TAK1 detected by immunoprecipitation.
Test [2] shares this target. In words: co-IP; RAW 264.7 cell extracts incubated with anti-FAK antibody for 1 h, precipitated with protein G-Sepharose at 4 °C overnight, TAK1 detected by immunoblot; cells treated with 0.5 μg/mL LPS (10 min or the indicated times), with or without 1 μM PND-1186 pretreatment for 1 h.

B1: transforming growth factor-β-activated kinase-1 (TAK1) (protein, UniProt Q62073 1-579)
chain: MSTASAASSSSSSSASEMIEAPSQVLNFEEIDYKEIEVEEVVGRGAFGVVCKAKWRAKDVAIKQIESESERKAFIVELRQLSRVNHPNIVKLYGACLNPVCLVMEYAEGGSLYNVLHGAEPLPYYTAAHAMSWCLQCSQGVAYLHSMQPKALIHRDLKPPNLLLVAGGTVLKICDFGTACDIQTHMTNNKGSAAWMAPEVFEGSNYSEKCDVFSWGIILWEVITRRKPFDEIGGPAFRIMWAVHNGTRPPLIKNLPKPIESLMTRCWSKDPSQRPSMEEIVKIMTHLMRYFPGADEPLQYPCQYSDEGQSNSATSTGSFMDIASTNTSNKSDTNMEQVPATNDTIKRLESKLLKNQAKQQSESGRLSLGASRGSSVESLPPTSEGKRMSADMSEIEARIVATAGNGQPRRRSIQDLTVTGTEPGQVSSRSSSPSVRMITTSGPTSEKPARSHPWTPDDSTDTNGSDNSIPMAYLTLDHQLQPLAPCPNSKESMAVFEQHCKMAQEYMKVQTEIALLLQRKQELVAELDQDEKDQQNTSRLVQEHKKLLDENKSLSTYYQQCKKQLEVIRSQQQKRQGTS
Take B1: the binding entry in test [1] and in test [2] was “binds” each time.
